Experimental data published in PubChem BioAssay AID2685 (National Center for Advancing Translational Sciences (NCATS), 2010).
Screen size: about 320,000 compounds; about 2,100 (0.66%) were called active. Inconclusive results, whose numbers are uncertain, are shown with a selection of clear calls. Calls follow the shape of the dose curve; as a rule, active = well fitted inhibition curve with a large enough effect in the signal ratio, with a control signal flat (not every such curve was filed as active); inconclusive = small, poorly fitted or top-dose-only effect, or effect the other way, or a change in a side signal; inactive = flat fitted curve, though single readings scatter; the % refers to the signal ratio. Potencies beside an inconclusive call are fits to weak or partial responses and may not hold up.

assay: qHTS Assay for Lipid Storage Modulators in Drosophila S3 Cells; settings: BODIPY lipid droplet fluorescence, 18-24 h, cells fed with added oleic acid; lipid storage change, negative = inhibition: at 46.1 µM (top of the series) unless noted
Outline: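 Drosophila S3 cells got compounds at several concentrations plus oleic acid (400 uM solution). Laser-scanning cytometry with 488 nm excitation read lipid droplets at 500-530 nm and cells at 575-640 nm. Percent activity was relative to 20 uM Triacsin C.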
% is scaled to controls: 0 for no effect and ±100 for the full control effect; potency is read from the fitted curve at half-maximal effect.

SMILES	Potency	lipid storage change, negative = inhibition	outcome
CC(C)C1C(=O)NC(=S)N1S(=O)(=O)c1ccc(C(C)(C)C)cc1 (configuration not stated)	inconclusive: 29.1 µM [activator, single point]	–	–
Cc1[nH]c(=S)[nH]c(=O)c1CCOc1ccccc1	–	inconclusive: 17.4%	–
CCNc1cccc2c1C(=O)N(C)C2=O	inconclusive: 1.03 µM [activator, full curve]	–	–
COc1ccc(N2CCN(C(=O)/C(C#N)=C/c3ccccc3)CC2)cc1	–	inconclusive: -3.32%	–
O=C(Cc1ccc(F)cc1)Nc1nnc(SCC(=O)NC2CCCC2)s1	–	inconclusive: 22.8% [at 9.22 µM]	–
CCn1nnnc1SCC(=O)Nc1cccc(C)n1	inconclusive: 0.231 µM [falling, full curve]	–	–
Cc1c(C(c2ccc(Br)cc2)c2c(C)n(C)n(-c3ccccc3)c2=O)c(=O)n(-c2ccccc2)n1C	–	inconclusive: -43.8%	–
Cc1ccccc1OCC(=O)OC1CCN(C)CC1	–	inconclusive: 1.9%	–
Cc1ccccc1NC(=O)N1CCNC(=O)C1CC(=O)Nc1cc(Cl)ccc1Cl (configuration not stated)	–	inconclusive: 26.4%	–
COc1ccccc1-n1c(SCC(N)=O)nc2c(c1=O)SCC2	–	inconclusive: -37.2%	–
CCN1CCN(CCNC(=O)C2CCN(Cc3nc(-c4ccc(Cl)cc4)oc3C)CC2)CC1	inconclusive: 6.51 µM [falling, full curve, poor fit]	–	–
O=S(=O)(Nc1ccn(-c2ccccc2)n1)c1ccc(Br)cc1	inconclusive: 8.2 µM [activator, partial curve]	–	–
O=C(C1CC(=O)N(C2CCCCC2)C1)N1CCN(c2cccc(C(F)(F)F)c2)CC1 (configuration not stated)	inconclusive: 29.1 µM [falling, single point]	–	–
Cc1ccc(NS(=O)(=O)c2cc(C(=O)NCCCN(C)C)ccc2Cl)cc1Cl	inconclusive: 0.13 µM [falling, full curve, poor fit]	–	–
CCC1CCCCN1S(=O)(=O)c1ccc(C(=O)Nc2nnc(C3CC3)o2)cc1 (configuration not stated)	–	inconclusive: -30.5%	–
CCCCn1c(N)c(N(C(=O)CSc2nnc(C)n2-c2ccccc2)C2CCCC2)c(=O)[nH]c1=O	–	inconclusive: 44.3%	–
CCC(=O)Nc1c(-c2ccc(OC)cc2)c(=O)c2ccccc2n1C	–	inconclusive: -24.9%	–
OCCC#Cc1ccc(CN2CCN(CCc3ccccc3)C(CCO)C2)cc1 (configuration not stated)	–	inconclusive: 20.4%	–
O=C1c2cc3ccccc3c(-c3ccccc3)c2C(=O)N1c1ccccn1	active: 23.1 µM	–	–
Cc1nc2ccc(S(=O)(=O)NCC(=O)NC(C)c3ccccc3)cc2s1 (configuration not stated)	–	inconclusive: 0.0136%	–
Cc1nnc2n(-c3ccccc3)c(=O)c3c4c(sc3n12)CCCC4	–	inconclusive: -0.112%	–
O=C(O)c1cccc(-n2cccc2/C=C2/SC(=O)N(CC(=O)N3CCCC3)C2=O)c1	–	inconclusive: -5.01%	–
O=C(CN1CCCCCC1)NCCN1C(=O)S/C(=C\c2ccccc2Cl)C1=O	–	inconclusive: -31.5%	–
COc1ccc(-c2cc(C(=O)NCC(c3ccccc3)N(C)C)c3ccccc3n2)cc1OC (configuration not stated)	–	inconclusive: 6.05%	–

SMILES	Potency	lipid storage change, negative = inhibition	outcome
Cc1ccc(Cl)c(OCC(=O)Nc2ccccc2C(=O)NC2CC2)c1	inconclusive: 0.731 µM [falling, partial curve, poor fit]	–	–
CC(C)CCNC(=O)NC(=O)COC(=O)/C=C/c1cnc2ccccc2n1	inconclusive: 0.82 µM [cytotoxic, full curve, poor fit]	–	–
O=C(/C=C/c1cccc([N+](=O)[O-])c1)N1CCN(S(=O)(=O)c2cccs2)CC1	–	inconclusive: -4.73% [at 9.22 µM]	–
CS(=O)(=O)c1ccc(Cl)c(NC(=O)c2cc(S(=O)(=O)N3CCOCC3)ccc2N2CCCC2)c1	inconclusive: 6.51 µM [falling, single point]	–	–
COc1ccc(C(=O)OCC(=O)Nc2ccc(N3CCOCC3)cc2)cc1OC	inconclusive: 29.1 µM [falling, single point]	–	–
COc1ccc(-n2ncc3c(N4CCc5ccccc54)ncnc32)cc1	inconclusive: 1.3 µM [activator, partial curve]	–	–
Nc1cc(=O)[nH]c(SCC(=O)NCC2CCCO2)n1 (configuration not stated)	–	inconclusive: 4.01%	–
CCCCNC(=O)CCCn1c(=O)[nH]c2ccc(Br)cc2c1=O	inconclusive: 3.66 µM [activator, single point]	–	–
O=C(NCc1ccc(F)cc1)C(c1ccc(Cl)cc1)N(C(=O)c1csnn1)C1CC1 (configuration not stated)	–	inconclusive: 44.3%	–
CCOc1ccc(-c2ncncc2-c2ccc(OC)c(OC)c2)c(O)c1	–	inconclusive: 17.3%	–
COc1cc(OC)c(/C=N/NC(=O)c2ccc(NC(C)=O)cc2)cc1Br	inconclusive: 29.1 µM [activator, single point]	–	–
COc1ccccc1C(=O)Nc1ccc2nc(SCC(=O)N(C)C)sc2c1	–	inconclusive: -3.75%	–
COc1ccc(-n2nnnc2SCC(=O)Nc2ccc3c(c2)OCCO3)cc1OC	inconclusive: 0.58 µM [activator, single point]	–	–
CCOC(=O)c1c(C)nc(C)c(C(=O)OCC)c1-c1cccnc1	–	inconclusive: 5.71%	–
COC(=O)C1=C(C)OC(N)=C(C#N)C1c1cc2cccc(C)c2nc1Cl (configuration not stated)	–	inconclusive: 2.78% [at 9.22 µM]	–
CC(NC(=O)CN1CCC(C(N)=O)CC1)c1ccccc1 (configuration not stated)	–	inconclusive: -35.7%	–
COc1ccc(NC(C)=O)cc1NC(=O)CSc1nc2ncccc2[nH]1	–	inconclusive: 61.3%	–
CN(C)S(=O)(=O)c1cccc(NC(=S)N/N=C/c2ccc(O)c(O)c2O)c1	–	inconclusive: -21.4%	–
COCc1ccc(C(=O)N2CCCC(C(=O)c3cccc(C(F)(F)F)c3)C2)o1 (configuration not stated)	–	inconclusive: -27%	–
COc1ccc(OCc2cc(C(=O)N(C)C(C)c3ccon3)no2)c(Cl)c1 (configuration not stated)	–	–	inactive [at 46.1 µM]
CS(=O)(=O)Nc1cccc(C2=NN(C(=O)c3ccccc3Cl)C(c3ccccc3O)C2)c1 (configuration not stated)	–	inconclusive: 19.8%	–
O=C(CCc1ccccc1)NCCc1ccc(F)cc1	inconclusive: 0.461 µM [activator, single point]	–	–
O=C(O)c1cc(/C=C/C(=O)c2cc(F)ccc2O)c2c(c1)COCO2	–	inconclusive: 7.73%	–

Three of the compounds above, as a markdown table.

| SMILES | Potency | lipid storage change, negative = inhibition | outcome |
| --- | --- | --- | --- |
| O=C(NCc1ccc(F)cc1)C(c1ccc(Cl)cc1)N(C(=O)c1csnn1)C1CC1 (configuration not stated) | – | inconclusive: 44.3% | – |
| CCOC(=O)c1c(C)nc(C)c(C(=O)OCC)c1-c1cccnc1 | – | inconclusive: 5.71% | – |
| COc1ccc(NC(C)=O)cc1NC(=O)CSc1nc2ncccc2[nH]1 | – | inconclusive: 61.3% | – |
